No constants are given. Whether binding was seen depends on the method and setting. In cells and extracts the contact can be indirect. Binding can be weak; no strength is given.
Biological target: T1, Frizzled-6 (Fz-6) (mouse (endogenous in Tep1)) (UniProt Q61089)
T1 sequence: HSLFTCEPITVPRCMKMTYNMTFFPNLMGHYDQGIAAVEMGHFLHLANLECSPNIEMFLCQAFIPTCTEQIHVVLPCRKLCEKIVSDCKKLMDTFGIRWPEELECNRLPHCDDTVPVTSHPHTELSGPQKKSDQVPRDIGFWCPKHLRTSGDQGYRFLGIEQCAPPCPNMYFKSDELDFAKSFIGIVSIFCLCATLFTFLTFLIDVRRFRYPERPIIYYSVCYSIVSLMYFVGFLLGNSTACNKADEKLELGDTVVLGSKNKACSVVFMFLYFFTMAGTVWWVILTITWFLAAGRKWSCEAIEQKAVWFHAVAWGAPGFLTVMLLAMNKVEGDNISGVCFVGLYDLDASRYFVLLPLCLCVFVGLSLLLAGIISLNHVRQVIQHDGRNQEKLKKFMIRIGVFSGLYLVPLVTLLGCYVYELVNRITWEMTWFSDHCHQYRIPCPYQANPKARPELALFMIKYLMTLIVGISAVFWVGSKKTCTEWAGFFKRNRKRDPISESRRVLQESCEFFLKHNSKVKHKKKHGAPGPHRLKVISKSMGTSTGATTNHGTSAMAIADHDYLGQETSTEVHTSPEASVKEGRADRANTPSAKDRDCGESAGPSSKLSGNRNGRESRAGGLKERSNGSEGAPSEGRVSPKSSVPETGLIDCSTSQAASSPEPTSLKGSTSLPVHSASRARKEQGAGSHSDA
Experiment: co-IP; Tep1 cells treated with control or Wnt-4 supernatants; cell lysates immunoprecipitated with anti-Fz-4 or anti-Fz-6 antibodies and protein G resin in the presence of protease and phosphatase inhibitors; blots probed for PKCδ and Dvl

binding: binds
Substance: Dishevelled (Dvl) (mouse (endogenous in Tep1))

From PMC3146701
